In publication PMC9590482:
Results are given in words; binding and its absence hold for the method and conditions named. In cells and extracts the contact can be indirect. For part of these data: A result given as binding can be weak or reduced; the word gives no strength.

Amino acid sequences for entries named in this document (tags omitted). A change or cut given only in a name is not applied to a line headed by its entry.
UniProt P14713: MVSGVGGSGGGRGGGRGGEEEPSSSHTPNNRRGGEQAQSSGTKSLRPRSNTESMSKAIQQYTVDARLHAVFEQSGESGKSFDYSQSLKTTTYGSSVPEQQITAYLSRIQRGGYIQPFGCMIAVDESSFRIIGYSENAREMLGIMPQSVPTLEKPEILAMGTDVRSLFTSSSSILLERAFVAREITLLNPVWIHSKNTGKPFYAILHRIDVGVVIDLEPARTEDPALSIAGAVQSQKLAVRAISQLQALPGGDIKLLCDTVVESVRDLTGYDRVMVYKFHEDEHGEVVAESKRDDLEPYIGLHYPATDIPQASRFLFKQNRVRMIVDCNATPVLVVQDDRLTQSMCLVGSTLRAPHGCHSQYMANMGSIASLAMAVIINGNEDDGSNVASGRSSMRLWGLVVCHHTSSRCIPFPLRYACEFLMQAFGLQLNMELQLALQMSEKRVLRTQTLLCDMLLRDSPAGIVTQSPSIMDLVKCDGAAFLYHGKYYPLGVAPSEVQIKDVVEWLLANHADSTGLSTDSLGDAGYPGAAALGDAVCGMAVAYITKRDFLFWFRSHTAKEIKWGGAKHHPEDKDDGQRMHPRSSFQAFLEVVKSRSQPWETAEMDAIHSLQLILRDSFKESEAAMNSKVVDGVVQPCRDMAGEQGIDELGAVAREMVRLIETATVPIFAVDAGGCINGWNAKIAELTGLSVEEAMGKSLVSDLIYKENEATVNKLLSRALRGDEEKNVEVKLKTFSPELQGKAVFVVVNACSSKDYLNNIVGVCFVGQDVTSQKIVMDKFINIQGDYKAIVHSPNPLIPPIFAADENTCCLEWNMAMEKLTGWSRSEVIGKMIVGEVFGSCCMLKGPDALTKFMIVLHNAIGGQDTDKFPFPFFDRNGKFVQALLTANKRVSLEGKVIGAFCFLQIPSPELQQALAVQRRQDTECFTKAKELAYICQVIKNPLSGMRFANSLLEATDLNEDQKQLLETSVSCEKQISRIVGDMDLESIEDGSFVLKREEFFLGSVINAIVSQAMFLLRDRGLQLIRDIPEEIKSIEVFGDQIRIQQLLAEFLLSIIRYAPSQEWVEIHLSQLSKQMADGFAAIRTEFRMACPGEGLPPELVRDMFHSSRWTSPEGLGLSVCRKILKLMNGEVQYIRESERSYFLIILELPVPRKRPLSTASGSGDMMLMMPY
UniProt O82256: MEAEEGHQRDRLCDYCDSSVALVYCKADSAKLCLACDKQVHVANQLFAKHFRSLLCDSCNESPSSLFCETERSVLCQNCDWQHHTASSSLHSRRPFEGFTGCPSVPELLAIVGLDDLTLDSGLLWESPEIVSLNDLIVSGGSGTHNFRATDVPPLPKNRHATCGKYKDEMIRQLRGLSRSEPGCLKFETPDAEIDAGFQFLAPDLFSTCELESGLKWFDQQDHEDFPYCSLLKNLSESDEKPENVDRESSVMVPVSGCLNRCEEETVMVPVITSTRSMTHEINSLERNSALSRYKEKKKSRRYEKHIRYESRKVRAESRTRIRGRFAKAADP

How the values were obtained:
[1] = target: phyB-nLUC (Arabidopsis) (UniProt P14713); test: split reporter; firefly luciferase complementation imaging (LCI); phyB-nLUC and cLUC-BBX11 co-expressed in Nicotiana benthamiana leaves; 1 d darkness, then kept in darkness for 2 d more
[2] = target: phyB-nLUC (Arabidopsis) (UniProt P14713); test: split reporter; firefly luciferase complementation imaging (LCI); phyB-nLUC and cLUC-BBX11 co-expressed in Nicotiana benthamiana leaves; 1 d darkness, then red light (94 μmol/m^2/s) for 2 d
[3] = target: myc-BBX11 (Arabidopsis) (UniProt O82256); test: co-IP; 35S:myc-BBX11 alone or together with 35S:phyB-Flag or 35S:PIF4-Flag transiently expressed in Nicotiana benthamiana leaves (long days, 3 d); extracts incubated with anti-myc antibodies on Protein-A Sepharose, 3 h at 4 °C; immunoblot with anti-myc and anti-Flag

| Substance | binding [1] | binding [2] | binding [3] |
| --- | --- | --- | --- |
| cLUC-BBX11 (from UniProt O82256) | no binding (only leaves kept in darkness) | binds | – |
| phyB-Flag (from UniProt P14713 1-1172) | – | – | binds |
